# Measured values reported in PubChem BioAssay (EPA / NIEHS).
# Chains of the proteins cited; added tags and fusions are not shown. Lines headed by an entry give the natural chain unless they say otherwise; changes in a name come on top.
# UniProt P10276, whole entry, looked up: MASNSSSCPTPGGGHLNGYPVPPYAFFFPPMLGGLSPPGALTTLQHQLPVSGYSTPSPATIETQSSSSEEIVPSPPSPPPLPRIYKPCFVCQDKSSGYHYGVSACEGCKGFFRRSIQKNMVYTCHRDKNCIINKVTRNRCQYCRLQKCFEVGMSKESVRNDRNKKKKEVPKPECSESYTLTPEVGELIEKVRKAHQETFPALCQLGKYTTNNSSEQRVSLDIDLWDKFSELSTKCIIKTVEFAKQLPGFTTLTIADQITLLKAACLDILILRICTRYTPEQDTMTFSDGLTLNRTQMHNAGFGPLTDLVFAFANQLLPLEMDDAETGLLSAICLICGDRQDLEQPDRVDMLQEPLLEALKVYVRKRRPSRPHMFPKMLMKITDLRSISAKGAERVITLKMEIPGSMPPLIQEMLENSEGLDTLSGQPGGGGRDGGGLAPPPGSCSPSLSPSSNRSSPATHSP
# UniProt O75469: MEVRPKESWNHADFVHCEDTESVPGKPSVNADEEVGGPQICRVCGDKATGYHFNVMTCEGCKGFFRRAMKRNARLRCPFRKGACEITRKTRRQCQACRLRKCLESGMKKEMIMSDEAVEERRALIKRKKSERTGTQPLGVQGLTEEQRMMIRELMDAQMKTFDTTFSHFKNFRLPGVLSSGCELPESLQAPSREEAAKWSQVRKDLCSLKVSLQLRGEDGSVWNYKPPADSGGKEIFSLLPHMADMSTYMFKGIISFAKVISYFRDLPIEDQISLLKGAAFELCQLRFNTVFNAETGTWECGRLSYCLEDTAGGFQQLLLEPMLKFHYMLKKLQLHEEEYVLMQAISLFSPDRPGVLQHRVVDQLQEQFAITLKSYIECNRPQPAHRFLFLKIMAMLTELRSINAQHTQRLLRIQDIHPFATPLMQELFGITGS
# UniProt Q96RI1: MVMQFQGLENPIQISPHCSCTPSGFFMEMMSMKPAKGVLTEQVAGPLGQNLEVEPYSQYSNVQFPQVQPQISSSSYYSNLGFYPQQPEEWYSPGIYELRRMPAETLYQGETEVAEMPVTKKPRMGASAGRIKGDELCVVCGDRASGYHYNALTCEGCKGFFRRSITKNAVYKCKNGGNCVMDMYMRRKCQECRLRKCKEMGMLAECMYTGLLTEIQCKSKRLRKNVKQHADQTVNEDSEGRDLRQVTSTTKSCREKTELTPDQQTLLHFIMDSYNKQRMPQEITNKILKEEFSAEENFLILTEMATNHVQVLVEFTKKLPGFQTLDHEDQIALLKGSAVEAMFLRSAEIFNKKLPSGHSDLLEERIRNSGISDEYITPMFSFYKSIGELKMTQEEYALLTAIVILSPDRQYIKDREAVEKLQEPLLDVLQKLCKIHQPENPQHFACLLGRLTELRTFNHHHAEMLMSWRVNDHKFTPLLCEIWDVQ
# UniProt P06401: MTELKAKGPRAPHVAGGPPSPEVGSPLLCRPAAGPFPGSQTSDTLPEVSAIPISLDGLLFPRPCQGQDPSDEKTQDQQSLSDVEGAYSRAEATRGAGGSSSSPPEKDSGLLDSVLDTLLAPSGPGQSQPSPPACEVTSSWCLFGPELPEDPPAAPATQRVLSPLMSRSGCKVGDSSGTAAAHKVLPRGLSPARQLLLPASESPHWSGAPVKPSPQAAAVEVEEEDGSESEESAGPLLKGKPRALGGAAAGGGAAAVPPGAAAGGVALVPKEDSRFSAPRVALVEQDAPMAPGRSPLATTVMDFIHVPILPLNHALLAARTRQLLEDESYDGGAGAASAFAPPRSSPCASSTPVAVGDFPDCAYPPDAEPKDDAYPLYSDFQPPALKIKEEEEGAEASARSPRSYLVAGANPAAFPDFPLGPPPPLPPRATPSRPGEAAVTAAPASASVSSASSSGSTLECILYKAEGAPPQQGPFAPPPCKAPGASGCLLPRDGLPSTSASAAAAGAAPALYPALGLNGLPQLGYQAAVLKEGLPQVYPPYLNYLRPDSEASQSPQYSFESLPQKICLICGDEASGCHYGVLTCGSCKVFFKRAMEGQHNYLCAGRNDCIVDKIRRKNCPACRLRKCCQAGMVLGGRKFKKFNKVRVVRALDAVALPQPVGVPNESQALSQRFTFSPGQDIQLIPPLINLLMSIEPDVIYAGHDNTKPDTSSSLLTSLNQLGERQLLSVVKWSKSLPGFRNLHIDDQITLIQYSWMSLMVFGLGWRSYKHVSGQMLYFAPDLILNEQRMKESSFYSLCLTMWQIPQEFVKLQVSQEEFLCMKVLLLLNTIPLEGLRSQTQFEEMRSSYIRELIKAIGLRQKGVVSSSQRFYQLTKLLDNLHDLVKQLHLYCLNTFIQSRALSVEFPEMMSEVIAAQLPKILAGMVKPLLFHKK
# UniProt P04150: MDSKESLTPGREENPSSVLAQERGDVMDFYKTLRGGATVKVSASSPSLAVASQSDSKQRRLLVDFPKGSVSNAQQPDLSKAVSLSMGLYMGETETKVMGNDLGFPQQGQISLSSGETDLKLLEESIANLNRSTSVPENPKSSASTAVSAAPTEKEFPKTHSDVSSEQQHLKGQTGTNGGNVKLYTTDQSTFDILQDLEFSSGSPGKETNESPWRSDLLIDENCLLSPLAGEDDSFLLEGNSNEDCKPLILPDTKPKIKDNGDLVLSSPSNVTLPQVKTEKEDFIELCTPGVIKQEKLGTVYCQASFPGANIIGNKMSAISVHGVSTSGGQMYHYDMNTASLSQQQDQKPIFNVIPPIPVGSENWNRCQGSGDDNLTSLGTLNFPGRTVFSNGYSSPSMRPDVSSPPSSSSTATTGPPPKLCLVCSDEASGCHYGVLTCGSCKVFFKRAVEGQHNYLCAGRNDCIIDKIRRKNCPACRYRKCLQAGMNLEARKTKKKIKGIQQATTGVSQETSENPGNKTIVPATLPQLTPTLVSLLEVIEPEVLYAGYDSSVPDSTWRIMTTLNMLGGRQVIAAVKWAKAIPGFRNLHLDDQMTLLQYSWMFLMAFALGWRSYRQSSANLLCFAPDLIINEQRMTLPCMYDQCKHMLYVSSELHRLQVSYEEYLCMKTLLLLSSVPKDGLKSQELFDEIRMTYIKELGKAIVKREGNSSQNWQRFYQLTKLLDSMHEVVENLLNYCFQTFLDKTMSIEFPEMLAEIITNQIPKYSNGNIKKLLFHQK
# UniProt P19785, whole entry, looked up: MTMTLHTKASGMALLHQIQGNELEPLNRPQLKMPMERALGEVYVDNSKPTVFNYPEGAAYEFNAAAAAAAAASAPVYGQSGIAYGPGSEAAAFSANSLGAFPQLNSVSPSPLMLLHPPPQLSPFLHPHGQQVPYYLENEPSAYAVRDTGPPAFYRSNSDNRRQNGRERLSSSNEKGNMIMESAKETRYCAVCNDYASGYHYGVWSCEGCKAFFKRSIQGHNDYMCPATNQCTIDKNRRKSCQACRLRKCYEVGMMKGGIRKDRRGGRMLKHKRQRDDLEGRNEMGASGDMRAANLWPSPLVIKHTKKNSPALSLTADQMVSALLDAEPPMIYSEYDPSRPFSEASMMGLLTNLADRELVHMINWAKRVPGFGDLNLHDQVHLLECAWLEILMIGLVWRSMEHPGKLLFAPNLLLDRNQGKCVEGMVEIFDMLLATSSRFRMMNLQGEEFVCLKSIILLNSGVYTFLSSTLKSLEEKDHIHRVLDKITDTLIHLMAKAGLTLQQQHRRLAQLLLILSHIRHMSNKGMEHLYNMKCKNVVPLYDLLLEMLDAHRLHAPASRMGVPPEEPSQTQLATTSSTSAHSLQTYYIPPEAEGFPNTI
# UniProt P31645, whole entry, looked up: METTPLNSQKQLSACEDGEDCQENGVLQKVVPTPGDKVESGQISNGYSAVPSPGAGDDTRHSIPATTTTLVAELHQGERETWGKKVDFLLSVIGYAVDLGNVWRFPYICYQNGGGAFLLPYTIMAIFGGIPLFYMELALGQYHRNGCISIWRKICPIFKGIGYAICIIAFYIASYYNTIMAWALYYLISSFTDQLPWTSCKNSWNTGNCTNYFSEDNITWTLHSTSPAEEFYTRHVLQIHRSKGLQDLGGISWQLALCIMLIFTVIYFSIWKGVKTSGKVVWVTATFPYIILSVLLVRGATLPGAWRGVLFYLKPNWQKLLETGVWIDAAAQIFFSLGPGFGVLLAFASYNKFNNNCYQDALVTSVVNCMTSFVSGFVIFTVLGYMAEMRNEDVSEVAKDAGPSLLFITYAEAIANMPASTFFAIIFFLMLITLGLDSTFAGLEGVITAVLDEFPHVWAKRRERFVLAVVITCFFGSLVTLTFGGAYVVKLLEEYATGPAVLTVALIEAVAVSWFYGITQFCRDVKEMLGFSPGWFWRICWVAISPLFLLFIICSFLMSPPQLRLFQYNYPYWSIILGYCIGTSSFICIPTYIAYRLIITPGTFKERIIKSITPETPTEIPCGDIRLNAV
# UniProt P15207: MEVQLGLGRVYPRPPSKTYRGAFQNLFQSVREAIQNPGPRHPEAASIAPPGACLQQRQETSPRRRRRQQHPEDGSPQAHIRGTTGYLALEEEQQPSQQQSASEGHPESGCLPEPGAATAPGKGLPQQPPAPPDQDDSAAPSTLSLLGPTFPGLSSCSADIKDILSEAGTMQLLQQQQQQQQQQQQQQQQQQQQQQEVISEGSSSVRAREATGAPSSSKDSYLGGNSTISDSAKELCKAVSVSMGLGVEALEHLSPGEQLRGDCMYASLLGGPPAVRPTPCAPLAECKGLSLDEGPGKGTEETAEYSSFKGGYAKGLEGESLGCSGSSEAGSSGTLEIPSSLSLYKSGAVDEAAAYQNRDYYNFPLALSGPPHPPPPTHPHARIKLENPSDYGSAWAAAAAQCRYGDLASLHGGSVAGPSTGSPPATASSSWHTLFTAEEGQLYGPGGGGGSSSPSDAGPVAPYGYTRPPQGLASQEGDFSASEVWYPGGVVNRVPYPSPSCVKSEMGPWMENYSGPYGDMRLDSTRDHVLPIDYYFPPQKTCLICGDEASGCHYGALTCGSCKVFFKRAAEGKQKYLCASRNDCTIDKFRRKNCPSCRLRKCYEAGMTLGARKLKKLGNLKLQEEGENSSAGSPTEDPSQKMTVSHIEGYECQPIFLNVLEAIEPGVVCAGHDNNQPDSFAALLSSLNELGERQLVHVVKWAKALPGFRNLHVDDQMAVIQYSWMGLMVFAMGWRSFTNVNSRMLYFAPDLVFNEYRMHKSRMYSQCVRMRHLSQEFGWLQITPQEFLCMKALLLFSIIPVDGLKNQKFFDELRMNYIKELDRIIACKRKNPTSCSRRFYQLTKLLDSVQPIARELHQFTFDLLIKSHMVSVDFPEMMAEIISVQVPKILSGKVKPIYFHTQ
# UniProt Q99808: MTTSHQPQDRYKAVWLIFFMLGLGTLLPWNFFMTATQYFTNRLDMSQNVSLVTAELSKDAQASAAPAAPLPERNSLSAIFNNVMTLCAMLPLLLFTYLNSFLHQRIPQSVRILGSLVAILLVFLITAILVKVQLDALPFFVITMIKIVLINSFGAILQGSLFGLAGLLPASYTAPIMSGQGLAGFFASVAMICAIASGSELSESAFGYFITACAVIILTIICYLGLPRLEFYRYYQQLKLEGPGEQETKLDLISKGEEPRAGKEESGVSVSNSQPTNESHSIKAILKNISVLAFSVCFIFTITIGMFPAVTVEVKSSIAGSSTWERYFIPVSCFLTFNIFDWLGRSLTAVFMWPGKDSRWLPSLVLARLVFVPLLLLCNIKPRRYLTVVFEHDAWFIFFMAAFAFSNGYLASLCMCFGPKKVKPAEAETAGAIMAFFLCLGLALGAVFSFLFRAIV
# UniProt P10275: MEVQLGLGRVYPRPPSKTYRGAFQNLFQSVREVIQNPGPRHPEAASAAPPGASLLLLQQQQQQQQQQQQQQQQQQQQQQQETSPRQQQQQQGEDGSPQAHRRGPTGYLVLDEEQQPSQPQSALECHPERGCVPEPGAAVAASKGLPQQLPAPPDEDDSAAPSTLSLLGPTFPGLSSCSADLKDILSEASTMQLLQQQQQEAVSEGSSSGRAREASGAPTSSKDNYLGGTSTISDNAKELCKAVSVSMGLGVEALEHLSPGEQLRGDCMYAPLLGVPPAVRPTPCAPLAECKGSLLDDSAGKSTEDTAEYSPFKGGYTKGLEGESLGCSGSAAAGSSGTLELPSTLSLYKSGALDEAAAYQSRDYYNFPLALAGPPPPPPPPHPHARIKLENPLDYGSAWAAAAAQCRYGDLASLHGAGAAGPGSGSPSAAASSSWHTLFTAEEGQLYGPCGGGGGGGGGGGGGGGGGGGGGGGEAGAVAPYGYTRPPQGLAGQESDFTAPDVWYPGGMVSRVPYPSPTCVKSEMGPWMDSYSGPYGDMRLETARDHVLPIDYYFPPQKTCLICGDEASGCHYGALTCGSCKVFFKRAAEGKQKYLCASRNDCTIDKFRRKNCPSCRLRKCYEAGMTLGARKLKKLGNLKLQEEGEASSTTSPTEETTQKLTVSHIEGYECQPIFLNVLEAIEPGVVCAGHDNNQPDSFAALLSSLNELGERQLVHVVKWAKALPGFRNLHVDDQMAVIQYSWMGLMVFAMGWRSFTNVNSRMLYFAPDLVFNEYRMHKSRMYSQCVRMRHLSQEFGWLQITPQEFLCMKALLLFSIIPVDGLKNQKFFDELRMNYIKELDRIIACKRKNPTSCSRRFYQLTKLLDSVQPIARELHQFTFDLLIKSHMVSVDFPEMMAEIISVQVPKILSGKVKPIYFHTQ
# The inconclusive results got no clear call from the source; some entries with a clear call stand among them for comparison. For some assays here: Potencies beside an inconclusive call are fits to weak or partial responses and may not hold up. Activity calls are given as the source filed them. The calls were made as follows: active = hit-call score of the fitted dose curve at least 0.9, where 1 is the maximum; inconclusive = response in the unintended direction; inactive = score below 0.9.
# What was measured:
# [1] = target: Retinoic acid receptor alpha (Homo sapiens) (UniProt P10276); experiment: NVS_NR_hRARa_Agonist: NovaScreen (NVS) Nuclear Receptor Binding Assay for human Retinoic Acid Alpha Receptor Agonism (RAR) (AID 2283361)
# In short: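 TR-FRET signal, 2 h post-dosing; cell-free extracted protein; DMSO = baseline, positive fitting direction; 25 uM single-point duplicate, then concentration series for actives.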
# [2] = target: Nuclear receptor subfamily 1 group I member 2 (Homo sapiens) (UniProt O75469); experiment: NVS_NR_hPXR: NovaScreen (NVS) Nuclear Receptor Binding Assay for human Pregnane X Receptor (PXR) (AID 2283365);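 also: a drop in FRET signal versus DMSO baseline means the compound binds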
# In short: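 Read-out: TR-FRET, human PXR, 2 h post-dosing, cell-free. Loss of signal vs DMSO taken as binding activity; 25 uM primary, concentration series secondary.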
# [3] = system: guinea pig Dopamine Transporter (DAT), gene 100714898; experiment: NVS_TR_gDAT: NovaScreen (NVS) Transporter Assay for guinea pig Dopamine Transporter (DAT) (AID 2283369);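 also: active compounds lower bound radioligand signal relative to DMSO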
# In short: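 Primary pass: duplicate wells at 25 uM, threshold e.g. 30% inhibition. Follow-up: singleton concentration-response, highest 50 uM. Radioligand binding on guinea pig striatal membranes, 2 h, filtration scintillation detection.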
# [4] = target: Bile acid receptor (Homo sapiens) (UniProt Q96RI1); experiment: OT_FXR_FXRSRC1_0480: Odyssey Thera (OT) 8-hour HEK293T Protein-Complementation Assay for Farnesoid X receptor/SRC-1 Co-activator (AID 2283383)
# In short: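 PCA, HEK293T, 8 h compound exposure; FXR–SRC-1 binding reconstitutes split reporter; fluorescence intensity; positive-direction fit vs DMSO.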
# PGR (gene 5241) = PGR (gene 5241) (UniProt P06401); experiment: NVS_NR_hPR: NovaScreen (NVS) Nuclear Receptor Binding Assay for human Progestron Receptor (PR) (AID 2283360);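 also: active means loss of bound radioligand signal versus DMSO baseline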
# In short: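 Cell-free radioligand binding using receptor protein extracted from T47D cells, read by scintillation counting 18 hours after dosing. Loss of signal relative to DMSO baseline indicates displacement; primary screen single concentration 25 uM in duplicate, actives followed in concentration series.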
# [5] = target: human Thyroid Receptor Alpha (TRa), THRA (gene 7067) (UniProt P10827); experiment: NVS_NR_hTRa_Antagonist: NovaScreen (NVS) Nuclear Receptor Binding Assay for human Thyroid Receptor Alpha Antagonism (TRa) (AID 2283362);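 also: activity is loss of signal relative to DMSO baseline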
# In short: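 In this biochemical format, receptor protein is dosed with chemical and read after 1 hour via AlphaLISA. Decreases from the DMSO baseline indicate antagonist activity; screening used 25 uM in duplicate before concentration-response confirmation.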
# [6] = target: Glucocorticoid receptor (Homo sapiens) (UniProt P04150); experiment: NVS_NR_hGR: NovaScreen (NVS) Nuclear Receptor Binding Assay for human Glucocorticoid Receptor (GR) (AID 2283363);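 also: activity is loss of specific radioligand binding signal relative to DMSO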
# In short: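 Filter scintillation readout of tritiated/iodinated radioligand displaced by test chemical; cell-free extracted protein; 16 h. DMSO = negative control/baseline. Duplicate single-point 25 uM screen, then concentration-response on actives.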
# [7] = target: mouse Estrogen Receptor alpha (Era), Esr1 (gene 13982) (UniProt P19785); experiment: NVS_NR_mERa: NovaScreen (NVS) Nuclear Receptor Binding Assay for mouse Estrogen Receptor alpha (Era) (AID 2283378);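 also: hit means loss of bound radioligand signal relative to DMSO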
# In short: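 Measurements come from scintillation counting after filtration, taken 18 hours after chemicals were added to a cell-free mouse Era preparation with radioligand. Screening was duplicate at 25 uM, with concurrent positive and negative controls and confirmatory concentration series for actives.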
# [8] = target: Bile acid receptor (Homo sapiens) (UniProt Q96RI1); experiment: OT_FXR_FXRSRC1_1440: Odyssey Thera (OT) 24-hour HEK293T Protein-Complementation Assay for Farnesoid X receptor/SRC-1 Co-activator (AID 2283384)
# In short: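 Measures ligand-driven FXR–SRC-1 co-activator recruitment in HEK293T via fragment complementation, fluorescence intensity at 24 h. DMSO served as negative control and baseline for gain-of-signal fitting.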
# [9] = target: Peroxisome proliferator-activated receptor gamma (Homo sapiens) (UniProt P37231); experiment: NVS_NR_hPPARg: NovaScreen (NVS) Nuclear Receptor Binding Assay for human Peroxisome Proliferator-activated Receptor gamma (PPARg) (AID 2283370)
# In short: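 Extracted receptor protein, cell-free; compound incubated 2 h then fluorescence polarization read. Baseline: DMSO. Actives from 25 uM duplicate screen re-run across concentrations.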
# [10] = target: human Serotonin Transporter (SERT), SLC6A4 (gene 6532) (UniProt P31645); experiment: NVS_TR_hSERT: NovaScreen (NVS) Transporter Assay for human Serotonin Transporter (SERT) (AID 2283372)
# In short: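 Human platelet membrane preparation; displacement of radioligand from serotonin transporter measured after 1 h by filtration and scintillation counting. Single 25 uM duplicate screen, then concentration series for actives, with DMSO as negative baseline.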
# [11] = target: rat Androgen Receptor (AR), Ar (gene 24208) (UniProt P15207); experiment: NVS_NR_rAR: NovaScreen (NVS) Nuclear Receptor Binding Assay for rat Androgen Receptor (AR) (AID 2283366)
# In short: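 Actives from a duplicate single-concentration (25 uM) primary run went on to concentration series. Displacement of radioligand was counted by filtration and scintillation, 18 h post-dose, using prostate extracts from testosterone-pretreated rats, with DMSO as baseline.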
# [12] = target: human Adenosine Transporter (Adot), SLC29A1 (gene 2030) (UniProt Q99808); experiment: NVS_TR_hAdoT: NovaScreen (NVS) Transporter Assay for human Adenosine Transporter (Adot) (AID 2283368)
# In short: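 Binding displacement on U937 extracted protein, read 1 h post-dose by filtration and scintillation counting. Primary duplicate test at 25 uM, then singleton concentration series with 50 uM top; DMSO baseline.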
# [13] = target: Agonist Androgen Response Element (ARE), AR (gene 367) (UniProt P10275); experiment: OT_AR_ARELUC_AG_1440: Odyssey Thera (OT) 24-hour CHO-K1 Luciferase Assay for Agonist Androgen Response Element (ARE) (AID 2283379)
# In short: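 Gain-of-signal reporter endpoint: cells (CHO-K1, hamster) are treated 24 h, luciferin/ATP reagent added, and luminescence compared with DMSO baseline.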
structure (smiles),measurement,setting,value
Cc1ccc(C(C)C)c(O)c1,AC50,[1],inconclusive: 44.4 µM
same,AC50,[2],inconclusive: 6.82 µM
same,outcome,[3],inactive
CC(=O)OCCOCCOCCOC(C)=O,AC50,[1],inconclusive: 25 µM
same,AC50,[2],active: 33.4 µM
same,AC50,[4],inconclusive: 50 µM
CCCN(CCC)C(=O)SCC,AC50,PGR (gene 5241),inconclusive: 0.583 µM
same,AC50,[5],inconclusive: 25 µM
same,AC50,[6],inconclusive: 25 µM
CS(=O)(=O)c1ccc(C2=C(c3ccccc3)C(=O)OC2)cc1,outcome,PGR (gene 5241),inactive
CN(C)c1ccc(C(=C2C=CC(=[N+](C)C)C=C2)c2ccccc2)cc1,AC50,PGR (gene 5241),inconclusive: 12.5 µM
CCC1CCCCC1,AC50,PGR (gene 5241),inconclusive: 0.376 µM
Cc1cnccn1,outcome,PGR (gene 5241),inactive
Nc1cccc2c(N)cccc12,AC50,[1],active: 20.5 µM
same,AC50,[2],inconclusive: 0.136 µM
CCNc1nc(N)nc(Cl)n1,AC50,PGR (gene 5241),inconclusive: 6.8 µM
same,AC50,[5],inconclusive: 0.193 µM
CCCCCCCCCCCCc1ccccc1S(=O)(=O)O,AC50,[1],inconclusive: 25 µM
same,AC50,[7],active: 18 µM
C=C(C)C(=O)OCCOCCOCCOC(=O)C(=C)C,outcome,PGR (gene 5241),inactive
O=C(O)c1cccnc1,outcome,PGR (gene 5241),inactive
same,AC50,[2],inconclusive: 25 µM
same,AC50,[4],inconclusive: 50 µM
same,outcome,[8],inactive
COC(=O)c1c(Cl)nn(C)c1S(=O)(=O)NC(=O)Nc1nc(OC)cc(OC)n1,AC50,[1],inconclusive: 0.445 µM
Cc1oc(-c2ccccc2)nc1CCOc1cccc2c1ccn2CCC(=O)O,AC50,PGR (gene 5241),inconclusive: 25 µM
same,AC50,[9],active: 2.27 µM
same,AC50,[7],inconclusive: 43.2 µM
CCc1cccc(C)c1N(C(=O)C(=O)O)C(C)COC (stereo unspecified),AC50,PGR (gene 5241),inconclusive: 0.115 µM
C[C@@H](Oc1ccc(CNC(=O)c2cccnc2Oc2ccc3c(c2)OCO3)c(F)c1)C(=O)O,outcome,PGR (gene 5241),inactive
same,AC50,[9],active: 13.6 µM
same,outcome,[4],inactive
same,AC50,[8],inconclusive: 17.7 µM
O=C(O)c1cc(O)c2ccccc2c1O,outcome,[1],inactive
same,AC50,[5],active: 18.4 µM
same,AC50,[2],active: 5.21 µM
same,AC50,[9],inconclusive: 25 µM
same,AC50,[7],inconclusive: 25 µM
same,AC50,[4],inconclusive: 88.1 µM
same,AC50,[8],inconclusive: 23.5 µM
CC(C)(C)c1n[nH]c(=O)n(N)c1=O,AC50,PGR (gene 5241),active: 0.131 µM
Cc1nc(-c2ccccn2)ncc1C(=O)Nn1cc(C)c2cc(F)ccc21,AC50,[1],inconclusive: 0.438 µM
same,outcome,[2],inactive
same,AC50,[9],inconclusive: 0.15 µM
same,AC50,[10],inconclusive: 36.1 µM
same,AC50,[4],inconclusive: 13.4 µM
same,outcome,[8],inactive
c1ccc2n[nH]nc2c1,AC50,PGR (gene 5241),inconclusive: 5.85 µM
same,AC50,[2],inconclusive: 25 µM
same,AC50,[9],inconclusive: 25 µM
O=C1OC(c2ccc(O)cc2)(c2ccc(O)cc2)c2ccccc21,AC50,[1],inconclusive: 25 µM
same,AC50,[11],active: 6.69 µM
Cn1cnc2c1c(=O)[nH]c(=O)n2C,outcome,PGR (gene 5241),inactive
same,AC50,[6],inconclusive: 10.5 µM
same,AC50,[12],inconclusive: 10.5 µM
same,outcome,[4],inactive
CCCCC(CC)COC(=O)/C=C\C(=O)OCC(CC)CCCC (stereo unspecified),AC50,[1],inconclusive: 25 µM
same,outcome,[9],inactive
same,AC50,[13],inconclusive: 50 µM
Cc1ccc2oc(CN(Cc3ccccc3)C(=O)Nc3c(F)cc(F)cc3F)c(-c3ccc(Cl)cc3)c2c1,AC50,PGR (gene 5241),inconclusive: 39.4 µM
CSc1nc(NC2CC2)nc(NC(C)(C)C)n1,AC50,[2],active: 3.05 µM
CC(C)(C)C1CCC(O)CC1 (stereo unspecified),AC50,[2],inconclusive: 0.00378 µM
Cc1cc2nc3c(=O)[nH]c(=O)nc-3n(C[C@H](O)[C@H](O)[C@H](O)CO)c2cc1C,AC50,[1],active: 6.52 µM
same,AC50,[8],active: 52.7 µM
Cc1ccc(S(=O)(=O)O)c(C)c1,AC50,[2],inconclusive: 25 µM
CCO[Si](CC)(OCC)OCC,outcome,[2],inactive
CC(C)C[C@H]1C(=O)N2CCC[C@H]2[C@]2(O)O[C@](NC(=O)[C@@H]3C=C4c5cccc6[nH]c(Br)c(c56)C[C@H]4N(C)C3)(C(C)C)C(=O)N12,AC50,[2],active: 1.04 µM
CCCCCCCCCCCCN1CCOCC1,outcome,[2],inactive
COc1cc(C(=O)NC2CCN(C)CC2)ccc1Nc1ncc2c(n1)N(C1CCCC1)CC(F)(F)C(=O)N2C,AC50,[5],inconclusive: 5.99 µM
same,AC50,[3],active: 13.8 µM
same,AC50,[7],active: 1.49 µM
same,AC50,[13],inconclusive: 2.96 µM
same,AC50,[8],active: 11 µM
CCCCCCCC(=O)N(C)C,AC50,[2],inconclusive: 0.0197 µM
CCCCCCOC(=O)CCCCC(=O)OCCCCCC,AC50,[2],inconclusive: 25 µM
Cc1cccnc1,AC50,[2],inconclusive: 25 µM
CCCCC(CC)COCCO (stereo unspecified),outcome,[5],inactive
same,AC50,[2],inconclusive: 25 µM
same,AC50,[9],inconclusive: 25 µM
CN1CCOCC1,AC50,[2],inconclusive: 1.46 µM
CCCC=C(C=O)CC,AC50,[2],inconclusive: 25 µM
CC(C)CCCCCCCCCCCCCCC(=O)O,AC50,[2],inconclusive: 25 µM
O=c1cc(-c2ccccc2)oc2cc(O)cc(O)c12,outcome,[2],inactive
c1ccc(C[n+]2cccc3ccccc32)cc1,AC50,[6],inconclusive: 0.734 µM
same,outcome,[8],inactive
CCc1ccc(O)cc1,outcome,[2],inactive

# 4 neighbouring records from above, for reference:
structure (smiles),measurement,setting,value
CCc1cccc(C)c1N(C(=O)C(=O)O)C(C)COC (stereo unspecified),AC50,PGR (gene 5241),inconclusive: 0.115 µM
C[C@@H](Oc1ccc(CNC(=O)c2cccnc2Oc2ccc3c(c2)OCO3)c(F)c1)C(=O)O,outcome,PGR (gene 5241),inactive
same,AC50,[9],active: 13.6 µM
same,outcome,[4],inactive
